# Reference: PubChem BioAssay AID493014 (National Center for Advancing Translational Sciences (NCATS), 2011)
# In all, about 340,000 compounds went through this assay and about 170 (0.05%) were called active. The inconclusive results got no clear call from the source; some entries with a clear call stand among them for comparison. The call rests on the fitted dose curve; in most records, active means well fitted inhibition curve with a large enough effect in the signal ratio, with a control signal flat (not every such curve was filed as active); inconclusive means small, poorly fitted or top-dose-only effect, or effect the other way, or a change in a side signal; inactive means flat fitted curve, though single readings scatter; the % refers to the signal ratio. A potency beside an inconclusive call is a rough fit, not a confirmed value.
# Test: qHTS Assay to Find Inhibitors of Chronic Active B-Cell Receptor Signaling;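 on activity change, negative = inhibition: plate controls were basal doxycycline-induced cells for no effect and cells given 10 µM MG132 for full effect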
# Conditions: ABC-DLBCL IkBa-CBG/CBR reporter, luminescence ratio (green luciferase fused to IkBa over red control in TMD8 lymphoma cells), 4 h; activity change, negative = inhibition: at 46.1 µM (top of the series)
# Method in brief: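 Concentration-response series (up to 46 uM) were applied to TMD8 dual-reporter cells for 4 h at 37C with doxycycline. Green/red ratio, after filter-overlap correction, defined %Activity; red signal alone was normalised to basal cells and zero luminescence.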
# Potency means the concentration at half of the fitted maximal effect.
SMILES,"activity change, negative = inhibition",Potency
CN(C)CC(O)COC(c1ccc(Cl)cc1)c1ccc(Cl)cc1 (stereo not drawn),inconclusive: -6.53%,
Cc1cccc(N2CCN(C(=O)CCCn3c(=O)c4cccn4c4cccnc43)CC2)c1C,inactive,
Cc1ccc(C)c(CN2CCCN(Cc3cc(C)ccc3C)S2(=O)=O)c1,inconclusive: 0.724%,
O=C(N/N=C/c1ccco1)c1ccc(C(=O)N/N=C/c2ccco2)o1,inconclusive: -19.4%,
O=Cc1cn(-c2ccccc2)nc1-c1ccncc1,inactive,
CC(Sc1ccccc1)C(=O)NCCc1ccccc1 (stereo not drawn),inconclusive: 4.83%,
O=C1C(Nc2ccccc2)=C(N2CCCCC2)C(=O)c2ccccc21,,"inconclusive: 22.4 µM [falling, single point]"
CCCn1nc2cc(C(=O)NC3CCc4ccccc43)ccc2c1OCC (stereo not drawn),inconclusive: 10.5%,
CC1CCCCC1NC(=O)c1ccc(NS(=O)(=O)c2ccc3[nH]c(=O)[nH]c3c2)cc1 (stereo not drawn),inconclusive: 8.9%,
c1ccc(-c2cc(-c3ccccc3)[nH]n2)cc1,inconclusive: -18.4%,
CC(C)CSc1ncc(-c2cccc(C(F)(F)F)c2)cn1,inconclusive: 11.5%,
CCN(CC)CCN(C)Cc1nc(C(c2ccccc2)c2ccccc2)no1,inactive,
CCSc1nnc(SCC(=O)NC2CCCCC2)s1,inconclusive: 3.48%,
Cc1ccccc1Nc1nc(N)nc(CSc2nnnn2-c2ccccc2)n1,inconclusive: -0.155%,
Cc1cccc(C)c1OCC(=O)N/N=C/c1ccc2c(c1)OCO2,inactive,
COC(=O)c1cccnc1NC(=S)NNC(=O)c1ccccc1,inconclusive: 0.672%,
O=C(NCCN1CCCC1=O)C1CCC(=O)N(CCc2ccc(Cl)cc2)C1 (stereo not drawn),inactive,
COc1cc(OC)cc(C(=O)N[C@H](C(=O)OCC(=O)Nc2ccc(C(N)=O)cc2)C(C)C)c1,inconclusive: -8.97%,
CC(C)(C)n1nnnc1C(c1ccccc1)N1CCc2ccccc2C1 (stereo not drawn),inactive,
Nc1cc([N+](=O)[O-])ccc1O,,"inconclusive: 32.6 µM [rising, partial curve, poor fit]"
CC(C)OC(=O)c1sc2nc(-c3ccccc3)ccc2c1N,inactive,
N#C/C(=C\Nc1ccc2cn[nH]c2c1)c1nc(-c2ccc(Cl)cc2)cs1,,"inconclusive: 0.355 µM [falling, full curve, poor fit]"
Cc1ccc(NC(=O)Cn2ncn3c(cc4ccccc43)c2=O)c(C)c1,inactive,
Cc1nc2cc(NS(=O)(=O)c3c(C)c(C)cc(C)c3C)ccc2s1,,"inconclusive: 16.4 µM [rising, partial curve]"
Cn1c(CC(=O)Nc2ccc(Cl)c(Cl)c2)nnc1SCC(=O)N1CCN(c2ccccc2)CC1,inactive,
CC(C)Oc1ccc(C(CC(=O)O)NC(=O)Cc2ccccc2)cc1 (stereo not drawn),inconclusive: 8.65%,
Cc1[nH][nH]c(=O)c1[C@@H](c1ccccc1[N+](=O)[O-])C(C#N)C#N,inconclusive: -1.21%,

SMILES,"activity change, negative = inhibition",Potency
CCCc1nnc(SCC(=O)O)n1CC,inconclusive: -0.578%,
COc1ccc(/C=C/C(=O)NC2CCS(=O)(=O)C2)cc1 (stereo not drawn),inconclusive: -20.5%,
N#CC(C(=S)Nc1ccccc1)c1nc2ccccc2[nH]1 (stereo not drawn),,"inconclusive: 2.82 µM [falling, partial curve, poor fit]"
CCOC(=O)c1sc(NC(=O)C2CC(=O)N(c3ccc(OC)cc3)C2)nc1C (stereo not drawn),inactive,
COC(=O)c1cc(C)sc1NC(=O)CN1CCN(C(=O)c2ccco2)CC1,inconclusive: 12.2%,
Cc1noc(C)c1/C=N/Nc1ccc2ccccc2n1,,"inconclusive: 2.82 µM [falling, full curve]"
N#C/C(=C\c1cccc([N+](=O)[O-])c1)C(=O)NCC1CCCO1 (stereo not drawn),,"inconclusive: 22.4 µM [falling, single point]"
COc1ccc(CNC(=O)CN(c2ccccc2OC)S(=O)(=O)c2ccc(C)cc2)cc1,inconclusive: -28.4%,
CCN(CC)CCCNC(=O)CCC(=O)Nc1ccc2nc(N3CCC(C)CC3)cc(C)c2c1,inactive,
O=C(COc1ccc(Cl)cc1[N+](=O)[O-])N1CCCCCC1,inconclusive: 2.25%,
Cc1cccc(-n2ccnc2SCC(=O)Nc2nccs2)c1,inconclusive: 6.21%,
CCN(C[C@H]1N[C@@](CC)(C(=O)OC)[C@H]2C(=O)N(C)C(=O)[C@@H]12)C(=O)C1CCCCC1,inactive,
COc1ccc(NC(=O)COc2ccc(/C=N/n3c(C)nnc3C)cc2OC)cc1,,"inconclusive: 29.1 µM [falling, single point]"
CCOc1ccc(NC(=O)c2ccccc2OC)cc1,inconclusive: -0.488%,
Cc1cccc(/C(N)=N/OC(=O)c2cccnc2)c1,inconclusive: -4.8%,
CCC/C(O)=C1\C(=O)CC(C)(C)CC1=Nc1ccc(OC)cc1,,"inconclusive: 35.5 µM [falling, single point]"
Cn1c(=O)c(C(=O)NNC(=O)c2ccccc2Br)c(O)c2ccccc21,,"inconclusive: 3.55 µM [falling, partial curve]"
CN1CCN(S(=O)(=O)c2ccc(N(C)Cc3ccc(OC(F)F)cc3)c([N+](=O)[O-])c2)CC1,inactive,
CC1CCCCN1C(=O)/C=C/c1ccccc1[N+](=O)[O-] (stereo not drawn),inconclusive: -19.9%,
CCn1nnnc1NC(=O)c1cccc(OC)c1,,"inconclusive: 28.2 µM [falling, single point]"
O=C(CSc1n[nH]c(=O)n1Cc1ccccc1)Nc1ccc(F)c(F)c1F,inconclusive: -4.62%,
COc1ccc(N2CC(C(=O)Nc3c(C(N)=O)oc4ccccc34)CC2=O)cc1 (stereo not drawn),,"inconclusive: 9.2 µM [rising, partial curve, poor fit]"
O=[N+]([O-])c1ccc(SCCc2ccccn2)cc1,inconclusive: 9.29%,
Clc1ccc(CO/N=C2\CCCc3nonc32)c(Cl)c1,inconclusive: 5.16%,
COc1ccc(C(=O)Cn2c(=N)n(C)c3ccccc32)cc1,inconclusive: 0.178%,
O=[N+]([O-])c1ccc(O)c(P(=O)(c2ccccc2)c2ccccc2)c1,inconclusive: -10.4%,

# Some of these compounds in order of molecular weight, high to low.
SMILES,"activity change, negative = inhibition",Potency
CN1CCN(S(=O)(=O)c2ccc(N(C)Cc3ccc(OC(F)F)cc3)c([N+](=O)[O-])c2)CC1,inactive,
COc1ccc(CNC(=O)CN(c2ccccc2OC)S(=O)(=O)c2ccc(C)cc2)cc1,inconclusive: -28.4%,
Cc1cccc(/C(N)=N/OC(=O)c2cccnc2)c1,inconclusive: -4.8%,
